Measurements from publication PMC9675819.
Results are given in words; binding and its absence hold for the method and conditions named. Binding seen in cells or lysates may run through a third protein. Some entries that bind do so weakly or less than the wild type. For some of these results: Where a sequence is shown, tags or fusion partners need not be part of it.

The chains behind the UniProt entries cited, without tags or fusion partners.
UniProt Q7Z434: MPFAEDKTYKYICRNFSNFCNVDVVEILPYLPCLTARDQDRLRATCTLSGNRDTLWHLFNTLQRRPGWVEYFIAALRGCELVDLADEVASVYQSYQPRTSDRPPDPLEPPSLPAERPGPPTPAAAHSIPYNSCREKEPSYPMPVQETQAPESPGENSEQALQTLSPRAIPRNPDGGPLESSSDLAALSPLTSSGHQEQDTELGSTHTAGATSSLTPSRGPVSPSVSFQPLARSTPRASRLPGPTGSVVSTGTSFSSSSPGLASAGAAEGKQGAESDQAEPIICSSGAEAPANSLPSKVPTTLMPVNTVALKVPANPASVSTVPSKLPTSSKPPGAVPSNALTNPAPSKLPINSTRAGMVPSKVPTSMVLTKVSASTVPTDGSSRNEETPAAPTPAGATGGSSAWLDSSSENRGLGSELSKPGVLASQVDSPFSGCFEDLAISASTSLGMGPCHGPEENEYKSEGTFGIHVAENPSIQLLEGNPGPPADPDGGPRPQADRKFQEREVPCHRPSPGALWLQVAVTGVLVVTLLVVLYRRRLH
UniProt O00463: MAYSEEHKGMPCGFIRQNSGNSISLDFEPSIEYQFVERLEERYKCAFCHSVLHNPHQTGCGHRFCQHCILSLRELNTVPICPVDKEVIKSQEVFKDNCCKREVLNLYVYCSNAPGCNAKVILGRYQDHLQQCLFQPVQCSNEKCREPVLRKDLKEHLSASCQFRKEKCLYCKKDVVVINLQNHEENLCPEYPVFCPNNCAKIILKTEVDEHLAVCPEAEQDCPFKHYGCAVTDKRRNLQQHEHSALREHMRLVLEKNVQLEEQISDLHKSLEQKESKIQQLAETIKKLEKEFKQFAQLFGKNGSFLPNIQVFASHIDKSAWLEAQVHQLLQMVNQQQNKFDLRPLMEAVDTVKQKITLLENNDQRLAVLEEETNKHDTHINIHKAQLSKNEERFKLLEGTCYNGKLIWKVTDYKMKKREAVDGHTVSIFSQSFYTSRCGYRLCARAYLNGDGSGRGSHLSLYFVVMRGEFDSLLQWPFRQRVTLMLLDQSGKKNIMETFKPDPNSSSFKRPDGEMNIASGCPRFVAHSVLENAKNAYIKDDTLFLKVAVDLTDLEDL
UniProt O00571: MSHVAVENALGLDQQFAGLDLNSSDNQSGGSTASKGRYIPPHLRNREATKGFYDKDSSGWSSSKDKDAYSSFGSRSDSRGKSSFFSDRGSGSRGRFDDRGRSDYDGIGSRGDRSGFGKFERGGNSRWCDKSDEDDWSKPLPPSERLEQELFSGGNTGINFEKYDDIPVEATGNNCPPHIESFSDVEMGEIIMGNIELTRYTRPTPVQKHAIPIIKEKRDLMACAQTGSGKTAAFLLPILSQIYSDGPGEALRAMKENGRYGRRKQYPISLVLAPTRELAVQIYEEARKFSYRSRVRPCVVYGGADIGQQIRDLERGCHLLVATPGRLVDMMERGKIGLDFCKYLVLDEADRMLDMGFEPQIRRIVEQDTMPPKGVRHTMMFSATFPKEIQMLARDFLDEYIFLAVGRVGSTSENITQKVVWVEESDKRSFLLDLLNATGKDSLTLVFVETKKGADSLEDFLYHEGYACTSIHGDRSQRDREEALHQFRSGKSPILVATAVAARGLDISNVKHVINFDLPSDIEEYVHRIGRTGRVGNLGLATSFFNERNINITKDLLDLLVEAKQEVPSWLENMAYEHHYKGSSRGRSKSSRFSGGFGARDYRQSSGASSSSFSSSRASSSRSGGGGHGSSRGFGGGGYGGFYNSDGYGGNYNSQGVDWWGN

Experiments:
Test in all cases: co-IP; HEK293T co-transfected with FLAG tagged proteins and DDX3X-GFP with or without murine circRIG-I; lysis buffer 10% glycerol, 0.5% NP-40, 150 mM NaCl, 0.1 mM EDTA; immunoprecipitated with FLAG antibody and protein A/G agarose beads, blotted with anti-GFP
FLAG tagged TRAF4 = biological target: T1, FLAG tagged TRAF4 (UniProt Q9BUZ4)
T1 sequence: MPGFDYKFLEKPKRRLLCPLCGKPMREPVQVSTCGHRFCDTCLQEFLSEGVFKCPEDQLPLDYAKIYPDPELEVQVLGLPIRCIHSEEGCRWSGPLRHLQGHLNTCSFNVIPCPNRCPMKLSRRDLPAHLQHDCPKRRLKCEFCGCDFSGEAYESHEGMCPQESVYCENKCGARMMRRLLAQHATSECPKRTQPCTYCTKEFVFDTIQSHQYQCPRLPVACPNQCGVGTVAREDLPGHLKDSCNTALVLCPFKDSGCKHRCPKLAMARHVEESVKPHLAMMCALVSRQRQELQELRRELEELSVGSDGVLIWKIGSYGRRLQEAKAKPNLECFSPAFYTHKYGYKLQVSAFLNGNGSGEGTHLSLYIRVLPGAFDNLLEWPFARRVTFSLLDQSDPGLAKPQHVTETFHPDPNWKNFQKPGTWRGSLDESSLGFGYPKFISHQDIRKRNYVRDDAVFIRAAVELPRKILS

FLAG tagged MAVS = FLAG tagged MAVS (UniProt Q7Z434)
FLAG tagged TRAF5 = FLAG tagged TRAF5 (UniProt O00463)
FLAG tagged TBK1 = biological target: T2, FLAG tagged TBK1 (UniProt Q9UHD2)
T2 sequence: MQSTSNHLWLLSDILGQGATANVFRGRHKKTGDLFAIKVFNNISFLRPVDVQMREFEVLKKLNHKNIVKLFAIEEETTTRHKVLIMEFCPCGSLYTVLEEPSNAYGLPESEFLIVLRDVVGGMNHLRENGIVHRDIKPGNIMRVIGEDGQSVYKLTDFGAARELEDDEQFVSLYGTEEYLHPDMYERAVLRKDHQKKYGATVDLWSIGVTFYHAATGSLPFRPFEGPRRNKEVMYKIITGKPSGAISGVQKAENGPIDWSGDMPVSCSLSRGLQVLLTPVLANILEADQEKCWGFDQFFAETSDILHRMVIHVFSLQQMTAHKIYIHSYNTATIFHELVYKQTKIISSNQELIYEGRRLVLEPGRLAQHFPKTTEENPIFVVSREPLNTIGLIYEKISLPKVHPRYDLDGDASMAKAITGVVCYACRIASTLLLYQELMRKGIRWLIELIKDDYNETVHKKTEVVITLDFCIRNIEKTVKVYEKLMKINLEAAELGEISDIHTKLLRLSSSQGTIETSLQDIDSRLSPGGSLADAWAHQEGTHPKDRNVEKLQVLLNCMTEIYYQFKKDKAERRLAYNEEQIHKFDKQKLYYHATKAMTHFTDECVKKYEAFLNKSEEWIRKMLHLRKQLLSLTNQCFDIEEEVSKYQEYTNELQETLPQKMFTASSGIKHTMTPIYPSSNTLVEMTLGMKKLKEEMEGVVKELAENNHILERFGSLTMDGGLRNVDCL

- binding (FLAG tagged TRAF4): binds
- binding (FLAG tagged MAVS): binds
- binding (FLAG tagged TRAF5): binds
- binding (FLAG tagged TBK1): binds
Substance: DDX3X-GFP (from UniProt O00571 1-662)
